Structures are written as SMILES. Where a name gives a salt, the structure may show the parent alone. ± gives the standard deviation of the averaged measurements. The list shows a part of the results. These are raw signals, not scaled to a control.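 HeLa cells imaged for ribosome-assembly readouts (ENP1 staining with or without export block, or inducible tagged ribosomal protein reporters); machine learning classified each cell's signal location against solvent (DMSO) controls. Hits exceeded the DMSO false-positive mean by five standard deviations, then were visually confirmed; three biological replicates.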

In the assay the test system is HeLa RPL29-GFP reporter. The assay can be described thus: fraction of reporter-positive cells with nuclear (nucleolar or nucleolar/nucleoplasmic) RPL29-GFP (MainHitrate); higher = more cells with nucleolar/nuclear readout signal (for ENP1 -LMB: less RNAPI inhibition; for +LMB ENP1 and RP reporters: stronger nuclear/nucleolar retention, i.e. ribosome biogenesis defect). As to conditions: concentration: 1 µM; treatment time: 6 h.
Take `Cc1ccc(NC(=O)c2ccc(CN3CCN(C)CC3)cc2)cc1Nc1nc(-c2cccnc2)cs1` [Masitinib (AB1010)]: the “fraction of reporter-positive cells with nuclear” value (shortened to “fraction”) worked out at 0.193 ± 0.028.

For the compound `CC(=O)O[C@@]12CO[C@@H]1C[C@H](O)[C@@]1(C)C(=O)[C@H](O)C3=C(C)[C@@H](OC(=O)[C@H](O)[C@@H](NC(=O)OC(C)(C)C)c4ccccc4)C[C@@](O)([C@@H](OC(=O)c4ccccc4)[C@H]21)C3(C)C` [Docetaxel (Taxotere)], the “fraction” value amounted to 0.269 ± 0.087.

For `CCCNCC(O)COc1ccccc1C(=O)CCc1ccccc1` (stereo not drawn) [Propafenone (Rytmonorm)], the “fraction” value came to 0.225 ± 0.082.

Consider `CCCc1cc(=O)[nH]c(=S)[nH]1` [Propylthiouracil], for which the “fraction” value worked out at 0.227 ± 0.063.

In the case of `CC(C)NCC(O)c1cc(O)cc(O)c1` (stereo not drawn) [Metaproterenol Sulfate], the “fraction” value is 0.319 ± 0.26.

Consider `Nc1nc2[nH]cnc2c(=S)[nH]1` [Thioguanine], for which the “fraction” value worked out at 0.201 ± 0.058.

Turning to `CN(C)c1ccc(O)c2c1C[C@H]1C[C@H]3[C@H](N(C)C)C(O)=C(C(N)=O)C(=O)[C@@]3(O)C(O)=C1C2=O` [Minocycline HCl], the “fraction” value is 0.284 ± 0.1.

For the compound `Nc1nc2[nH]cc(CCc3ccc(C(=O)N[C@@H](CCC(=O)O)C(=O)O)cc3)c2c(=O)[nH]1` [Pemetrexed], the “fraction” value was determined as 0.184 ± 0.081.

With `C[C@@H]1C/C=C/C=C/C=C/C=C/[C@H](O[C@@H]2O[C@H](C)[C@@H](O)[C@H](N)[C@@H]2O)C[C@@H]2O[C@](O)(C[C@@H](O)C[C@H]3O[C@@H]3/C=C/C(=O)O1)C[C@H](O)[C@H]2C(=O)O` [Natamycin (Pimaricin)], the “fraction” value was determined as 0.239 ± 0.068.

With `C=CCc1cc(OC)c(O)c(C(=O)NCCO)c1` [Alibendol], the “fraction” value was 0.21 ± 0.061.

On to `CCCN1CCCC[C@H]1C(=O)Nc1c(C)cccc1C` [Ropivacaine HCl], for which the “fraction” value was found to be 0.227 ± 0.051.

As for `COc1ccc(CC2c3cc(OC)c(OC)cc3CC[N+]2(C)CCC(=O)OCCCCCOC(=O)CC[N+]2(C)CCc3cc(OC)c(OC)cc3C2Cc2ccc(OC)c(OC)c2)cc1OC` (stereo not drawn) [Atracurium besylate], the “fraction” value was determined as 0.243 ± 0.085.

Take `CCOC(=O)[C@H](CCc1ccccc1)N[C@H]1CS[C@H](c2cccs2)CN(CC(=O)O)C1=O` [Temocapril HCl]: the “fraction” value came out at 0.231 ± 0.055.

Turning to `CC(C)NC[C@H](O)COc1ccc(CCOCC2CC2)cc1` [Levobetaxolol HCl], the “fraction” value was 0.216 ± 0.051.

Regarding `C[C@H](N)[C@H](O)c1cccc(O)c1` [Metaraminol Bitartrate], the “fraction” value is 0.289 ± 0.27.

As for `Cn1c(=O)c2[nH]cnc2n(C)c1=O` [Aminophylline (Truphylline)], the “fraction” value stood at 0.235 ± 0.092.

`N#CC[C@H](C1CCCC1)n1cc(-c2ncnc3[nH]ccc23)cn1`: the “fraction” value is 0.201 ± 0.092.

Take `NCCc1c[nH]cn1` [Histamine Phosphate]: the “fraction” value turned out to be 0.216 ± 0.065.

Source of the values: the supplement of paper PMC12542422.
